Measurements as given in publication PMC9475462.
These are yes or no findings as the source states them, for the method shown. Binding seen in cells or lysates may run through a third protein. Some binding calls cover weakened binding; strength is not graded here. For some assays here: Where a sequence is shown, tags or fusion partners need not be part of it.

Sequences of proteins named here, by UniProt entry; tags and fusion partners are left off. A change or cut given only in a name is not applied to a line headed by its entry.
UniProt P14618: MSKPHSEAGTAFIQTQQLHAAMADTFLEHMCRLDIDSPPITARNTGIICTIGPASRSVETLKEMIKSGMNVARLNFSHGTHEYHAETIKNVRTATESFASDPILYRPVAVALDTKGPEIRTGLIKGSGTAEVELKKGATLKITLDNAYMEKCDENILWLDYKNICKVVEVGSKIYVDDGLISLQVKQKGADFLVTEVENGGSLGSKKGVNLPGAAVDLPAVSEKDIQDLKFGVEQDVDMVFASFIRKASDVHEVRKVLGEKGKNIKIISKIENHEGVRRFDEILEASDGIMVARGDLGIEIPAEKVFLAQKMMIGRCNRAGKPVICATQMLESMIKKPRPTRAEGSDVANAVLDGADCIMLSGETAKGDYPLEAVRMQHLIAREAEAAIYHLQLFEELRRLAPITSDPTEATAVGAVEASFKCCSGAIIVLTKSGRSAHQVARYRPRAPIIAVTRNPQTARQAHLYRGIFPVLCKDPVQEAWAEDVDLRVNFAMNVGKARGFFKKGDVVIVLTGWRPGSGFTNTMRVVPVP

Assays:
[1] = molecular target: T1, FLAG-ARHGAP24 (Rho GTPase activating protein 24) (UniProt Q8N264); assay: co-IP; HCCLM3 cells transfected with Flag-tagged ARHGAP24, in the presence of MG132
T1 sequence: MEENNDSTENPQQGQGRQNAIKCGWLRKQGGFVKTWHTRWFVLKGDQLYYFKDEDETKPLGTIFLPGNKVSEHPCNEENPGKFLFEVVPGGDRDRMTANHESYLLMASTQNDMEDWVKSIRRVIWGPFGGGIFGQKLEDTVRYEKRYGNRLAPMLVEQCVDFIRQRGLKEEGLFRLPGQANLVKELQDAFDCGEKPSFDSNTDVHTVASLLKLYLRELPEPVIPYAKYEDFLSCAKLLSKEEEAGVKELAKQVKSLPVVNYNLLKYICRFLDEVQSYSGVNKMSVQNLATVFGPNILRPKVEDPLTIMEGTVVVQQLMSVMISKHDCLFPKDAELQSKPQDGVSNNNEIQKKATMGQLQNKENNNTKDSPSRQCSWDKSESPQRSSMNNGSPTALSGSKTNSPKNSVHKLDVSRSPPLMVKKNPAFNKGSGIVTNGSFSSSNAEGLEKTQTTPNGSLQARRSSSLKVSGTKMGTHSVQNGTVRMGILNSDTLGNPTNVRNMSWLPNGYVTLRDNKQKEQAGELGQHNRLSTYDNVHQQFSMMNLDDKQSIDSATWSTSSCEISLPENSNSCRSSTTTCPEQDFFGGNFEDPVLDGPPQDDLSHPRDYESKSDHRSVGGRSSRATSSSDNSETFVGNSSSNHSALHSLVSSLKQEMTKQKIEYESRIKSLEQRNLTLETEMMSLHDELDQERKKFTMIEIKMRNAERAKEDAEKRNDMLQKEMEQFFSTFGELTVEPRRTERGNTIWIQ

[2] = molecular target: T2, full-length HA-tagged ARHGAP24 (FL-ARH-HA), in HCCLM3 cells (UniProt Q8N264); assay: co-IP; HCCLM3 cells transfected with FL-ARH-HA or the deletion mutant ARH-ΔCD-HA; IP and western blot
T2 sequence: T1 sequence

[3] = molecular target: T3, full-length HA-tagged ARHGAP24 (ARH-FL-HA), in HEK293T cells (UniProt Q8N264); assay: co-IP; HEK293T (HEK293) cells co-transfected with HA-tagged ARHGAP24, FLAG-tagged PKM2 and/or His-tagged WWP1 constructs; IP and western blot
T3 sequence: T1 sequence

[4] = molecular target: T4, ARHGAP24 in HCC cells (Figure 6B) (UniProt Q8N264); assay: co-IP; HCC cells (Figure 6B); cell lines and antibodies not told in the text shown
T4 sequence: T1 sequence

pyruvate kinase M2 (PKM2), in HCCLM3 cells (from UniProt P14618 1-531)
binding [1]: binds | binding [2]: binds

full-length FLAG-tagged PKM2 (PKM2-FL-FLAG), in HEK293T cells (from UniProt P14618 1-531)
binding [3]: binds

PKM2 in HCC cells (Figure 6B) (from UniProt P14618 1-531)
binding [4]: binds

C-terminal of PKM2, FLAG-tagged (PKM2-CD) (from UniProt P14618 388-531) (domain or fragment)
binding [3]: binds
